# Several values for one entry are separate records, joined by “and”; a condition that tells them apart may be missing. Identical values can stand only once. Out of some 580,000 compounds screened, about 6,100 (1.1%) were called active. The inconclusive results got no clear call from the source; some entries with a clear call stand among them for comparison. Calls come from the whole dose curve; as a rule, active = well fitted inhibition curve with a large enough effect; inconclusive = small, poorly fitted or top-dose-only effect, or another doubt; inactive = no such curve, though single readings can be large or run the other way. A potency beside an inconclusive call is a rough fit, not a confirmed value. The source holds several records for some structures; these can differ, active in one and inactive in another.
# Sequences of proteins named here, by UniProt entry; tags and fusion partners are left off. A change or cut given only in a name is not applied to a line headed by its entry.
# UniProt P18054: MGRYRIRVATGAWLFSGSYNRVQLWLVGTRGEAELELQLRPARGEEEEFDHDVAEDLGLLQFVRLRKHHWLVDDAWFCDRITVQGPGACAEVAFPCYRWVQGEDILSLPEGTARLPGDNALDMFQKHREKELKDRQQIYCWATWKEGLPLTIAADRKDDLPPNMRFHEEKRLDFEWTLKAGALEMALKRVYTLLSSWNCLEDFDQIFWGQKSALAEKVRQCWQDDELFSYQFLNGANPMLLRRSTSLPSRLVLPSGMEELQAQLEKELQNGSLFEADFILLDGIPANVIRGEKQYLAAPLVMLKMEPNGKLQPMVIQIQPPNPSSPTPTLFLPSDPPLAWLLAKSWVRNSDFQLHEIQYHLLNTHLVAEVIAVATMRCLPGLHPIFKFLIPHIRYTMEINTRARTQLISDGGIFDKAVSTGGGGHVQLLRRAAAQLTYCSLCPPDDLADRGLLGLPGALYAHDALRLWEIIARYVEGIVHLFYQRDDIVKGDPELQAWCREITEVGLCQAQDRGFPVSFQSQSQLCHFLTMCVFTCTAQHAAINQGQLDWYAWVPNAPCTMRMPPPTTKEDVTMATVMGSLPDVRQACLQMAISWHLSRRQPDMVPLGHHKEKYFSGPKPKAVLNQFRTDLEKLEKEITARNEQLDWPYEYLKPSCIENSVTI
# Molecular target: Polyunsaturated fatty acid lipoxygenase ALOX12 (Homo sapiens) (UniProt P18054)
# Experiment: Primary qHTS assay for inhibitors of human arachidonate 12S-lipoxygenase (ALOX12): Round 2
# Details: purified 12hLO, xylenol orange hydroperoxide absorbance; activity change, negative = inhibition: at 108 µM (top of the series) unless noted
# How it was run: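 Purified human 12hLO (150 nM final) in 25 mM Hepes, 0.01% Triton X-100, pH 7.0 was preincubated 15 min at room temperature with compound. Then 40 uM arachidonic acid was added, 30 min. Hydroperoxide was read by Fe-XO absorbance ratio 573/405 nm.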
# % is set by controls: 0 for no effect and ±100 for the full control effect; potency is the fitted concentration of half-maximal effect.
Structure (SMILES),Potency,"activity change, negative = inhibition"
FC(F)(F)c1cc(-c2ccco2)nc(NCc2ccco2)n1,"inconclusive: 35.5 µM [inhibitor, partial curve, poor fit]",–
CC(C)c1[nH]nc2c1C(C1C=CCCC1)C(C#N)=C(N)O2 (stereo not given),"inconclusive: 112 µM [inhibitor, single point]",–
CCc1cc2c(cc3c(=O)n(CC(=O)NCCc4ccc(OC)cc4OC)nc(CC)n32)s1,"inconclusive: 141 µM [inhibitor, partial curve, poor fit]",–
COc1ccc2[nH]cc(CCN=C(NC(=O)c3ccccc3OC)Nc3nc(C)cc(C)n3)c2c1,inactive,–
C/C(=N\Nc1ccc([N+](=O)[O-])cc1)c1ccc(Br)cc1,"inconclusive: 50.1 µM [inhibitor, partial curve, poor fit]",–
O=C(Nc1ccncc1)c1ccc(COc2cc(Cl)ccc2Cl)cc1,inactive,–
CCOc1ccccc1CNC(=O)CCNC(=O)Cn1ccc2ccccc2c1=O,"inconclusive: 158 µM [inhibitor, partial curve, poor fit]",–
COc1ccc(-n2c(=O)c3c4c(sc3n(CC(N)=O)c2=O)CCCCC4)cc1,"inconclusive: 100 µM [inhibitor, single point]",–
Cc1cc2[nH]c(=O)c(=O)[nH]c2cc1S(=O)(=O)N1CCN(c2cccc(Cl)c2)CC1,"inconclusive: 100 µM [inhibitor, partial curve, poor fit]",–
COc1cc(OC)c(NS(=O)(=O)c2cc(C(=O)N3CCCCC3)ccc2C)cc1Cl,"inconclusive: 100 µM [inhibitor, single point]",–
CC(C)COC(=O)c1ccc(NC(=O)C2=C(c3ccccc3)S(=O)(=O)CCO2)cc1,"inconclusive: 50.1 µM [inhibitor, partial curve, poor fit]",–
COc1ccc2c(c1)c1nc3ccccc3nc1n2Cc1ccc(OC(C)C)c(OC)c1,inactive,–
O=C(CN1CCOCC1)N1N=C(c2cc3ccccc3o2)CC1c1ccco1 (stereo not given),"inconclusive: 39.8 µM [inhibitor, partial curve, poor fit]",–
CN1CCC2(C1)CN(CC1CC1)c1ccc(C(=O)NCCOc3ccccc3)cc12 (stereo not given),inactive,–
O=S(NCc1ccco1)C12CC3CC(CC(C3)C1)C2 (stereo not given),"inconclusive: 20 µM [inhibitor, partial curve, poor fit]",–
COc1ccc(-c2c(C)oc3cc(OCC(=O)Nc4cc(C)ccc4OC)ccc3c2=O)cc1,"inconclusive: 31.6 µM [inhibitor, single point]",–
Cc1ccc2cc(C3CC(c4ccco4)=NN3S(C)(=O)=O)c(Cl)nc2c1 (stereo not given),"inconclusive: 112 µM [inhibitor, single point]",–
CN1CCN([C@H]2[C@@H]3OC[C@@H](O3)[C@@H](NCc3ccc(-c4ccccc4)cc3)[C@@H]2O)CC1,inactive,–
CCCCCCC(=O)Nc1nc(C)c(-c2csc(Nc3cc(Cl)ccc3C)n2)s1,"inconclusive: 89.1 µM [inhibitor, single point]",–
Cc1ccc(-n2c(C)csc2=N)cc1,"inconclusive: 50.1 µM [inhibitor, partial curve, poor fit]",–
O=C(CCSc1nc(-c2ccco2)cc(C(F)(F)F)n1)NCc1cccs1,"inconclusive: 79.4 µM [inhibitor, partial curve, poor fit]",–
CC(=O)N1CCc2nc3sc(C(=O)Nc4ccc(Cl)cc4)c(N)c3c(C(F)(F)F)c2C1,inactive,–

Structure (SMILES),Potency,"activity change, negative = inhibition"
CCOc1ccc(N2C(=O)/C(=C/c3ccco3)N(C)C2=S)cc1,"inconclusive: 79.4 µM [inhibitor, partial curve, poor fit]",–
COc1cc(NS(=O)(=O)c2ccc(Br)s2)cc(OC)c1,"inconclusive: 63.1 µM [inhibitor, partial curve, poor fit]",–
O=c1[nH]c(N2CCOCC2)nc2nccc(-c3cccnc3)c12,inactive,–
Cc1ccc(NC(=O)CCc2c[nH]c3ccccc23)nc1,inactive,–
O=C(OCC(=O)N1CCN(c2ccccc2)CC1)c1ccco1,"inconclusive: 89.1 µM [inhibitor, single point]",–
NC1(C(=O)NCCC2CCCN(Cc3ccc4occc4c3)C2)CC1 (stereo not given),"inconclusive: 31.6 µM [inhibitor, single point]",–
COc1ccc(CCNc2ccc(C)cc2)cc1,inactive,–
CC(=O)N1Cc2ccccc2CC2(CCCCN2Cc2ccncc2)C1 (stereo not given),–,inactive: 2.12% [at 6.33 µM]
Cn1ccc2c(N(Cc3ccccc3)Cc3ccccc3)cc3c(c21)C1CCC3C1 (stereo not given),"inconclusive: 79.4 µM [inhibitor, partial curve, poor fit]",–
Cn1ccnc1SCC(=O)c1ccc([N+](=O)[O-])cc1,"inconclusive: 50.1 µM [inhibitor, partial curve, poor fit]",–
CCCC(C)c1nnc(NC(=O)CS(=O)(=O)Cc2ccccc2)s1 (stereo not given),"inconclusive: 141 µM [inhibitor, partial curve, poor fit]",–
CCOc1ccc(C(C)=O)cc1COC(=O)COc1ccc(Cl)c(C)c1,inactive,–
c1ccc(-c2cc3n(c2)CCc2ccccc2-3)cc1,inactive and active: 6.31 µM,–
CN(C)c1ccc(CN2CC[C@H](c3nc4cc(Cl)ccc4o3)C2)cc1,inactive,–
CCOC(=O)C1=C(CN(C)Cc2ccccc2C)NC(=O)NC1c1ccc(Cl)cc1 (stereo not given),"inconclusive: 56.2 µM [inhibitor, single point]",–
O=C(Nc1ccc(Br)cc1F)c1ccc2nc(N3CCCCC3)sc2c1,"inconclusive: 50.1 µM [inhibitor, partial curve, poor fit]",–
O=C(NCCO)c1nc(-c2ccc(COc3ccc4c(c3)OCO4)cc2)no1,inactive,–
Cc1nc2cccnc2n1C1CCN(C(=O)Nc2ccc(Cl)cc2)CC1,"inconclusive: 44.7 µM [inhibitor, partial curve, poor fit]",–
Cc1cccc(OC(=O)c2cccnc2)c1C,"inconclusive: 3.98 µM [inhibitor, full curve, poor fit]",–
Cc1nn(-c2ccccc2)c(Cl)c1/C=N/Nc1nncc(=O)[nH]1,"inconclusive: 4.47 µM [inhibitor, full curve, poor fit]",–
COC(=O)N[C@H]1CC=C[C@@H]1Cc1cccc(Oc2ccccc2)c1,"inconclusive: 35.5 µM [inhibitor, single point]",–
O=C(CC1COCCN1)NCCc1cnn(-c2ccccc2)c1 (stereo not given),"inconclusive: 11.2 µM [inhibitor, partial curve, poor fit]",–

Structure (SMILES),Potency,"activity change, negative = inhibition"
O=[N+]([O-])c1ccc(O)c(/C=N/Nc2ccccc2Cl)c1,"inconclusive: 50.1 µM [inhibitor, partial curve, poor fit]",–
Cc1nc(C)c(C(=O)N2CCCCCNC(=O)[C@@H]3CCC[C@@H]32)s1,inactive,–
CC1(O)CC(c2ccc(Cl)cc2)=NN1C(=O)c1ccc([N+](=O)[O-])cc1 (stereo not given),"inconclusive: 44.7 µM [inhibitor, partial curve, poor fit]",–
COC(=O)c1cc(NCc2cc(Cl)c(OCC(N)=O)c(OC)c2)ccc1N1CCOCC1,"inconclusive: 31.6 µM [inhibitor, partial curve, poor fit]",–
Cc1oc(-c2ccccc2)nc1C(=O)N(C)Cc1ccc(Br)cc1,"inconclusive: 7.94 µM [inhibitor, full curve]",–
C/C(=N\NC(=O)c1ccc(O)cc1)c1cccc(NC(=O)c2ccccc2C)c1,inactive,–
Cc1ccc2c(CC(=O)OCC(=O)Nc3ccc(Cl)cn3)coc2c1,"inconclusive: 44.7 µM [inhibitor, partial curve]",–
CNC(=O)CN1c2ccc(Br)cc2-c2ccccc2S1(=O)=O,"inconclusive: 112 µM [inhibitor, single point]",–
CC(NCc1cc(Br)ccc1OCC(=O)NCc1ccccc1)c1ccccc1 (stereo not given),"inconclusive: 70.8 µM [inhibitor, partial curve, poor fit]",–
CC(C)N[C@@H]1CO[C@H](CNC(=O)c2ccccc2)[C@H]1O,inactive,–
COc1ccc(NC(=O)CCNS(=O)(=O)c2ccc3c(c2)c(=O)n(C)c(=O)n3C)c(OC)c1,inactive,–
CCc1ccc(CN(C)CC(=O)Nc2ccc(S(=O)(=O)N3CCOCC3)cc2)cc1,inactive,–
O=[N+]([O-])c1cc2ccccc2c(O)c1O,"inconclusive: 31.6 µM [inhibitor, single point]",–
Cc1ccc2nc(-c3ccc(C)s3)cc(C(=O)NCCN3CCOCC3)c2c1,"inconclusive: 44.7 µM [inhibitor, partial curve, poor fit]",–
O=C(O)COc1ccc(-c2nccc3c2C(=O)N(Cc2cccc(C(F)(F)F)c2)CC(COc2cccc(F)c2)O3)cc1 (stereo not given),inactive,–
CCCOc1ccccc1-n1sc2c(c1=S)-c1cc(OC)cc3c1N(C(=O)C3=O)C2(C)C,"inconclusive: 70.8 µM [inhibitor, single point]",–
CCN1CCN(CC(=O)c2c(C)n(C)c3ccc(OC)cc23)CC1,"inconclusive: 5.62 µM [inhibitor, full curve, poor fit]",–
COc1ccc(Nc2nc(N3CCN(c4ccccc4OC)CC3)nc3c2cnn3C)cc1,inactive,–
O=C1CCCC2=C1C(c1cn(-c3ccccc3)nc1-c1cccs1)c1c([nH]c(=O)[nH]c1=O)N2 (stereo not given),"inconclusive: 39.8 µM [inhibitor, partial curve, poor fit]",–
O=C(NCC1CCN(c2cc(-c3ccc(Cl)cc3)[nH]n2)CC1)c1ccc2nc[nH]c2c1,inactive,–
CCNc1ccc(S(=O)(=O)N2CCOCC2)cc1NC(=O)Cc1c[nH]c2ccccc12,inactive,–

# From PubChem BioAssay AID1671190 (National Center for Advancing Translational Sciences (NCATS), 2021)
